The values below come from article PMC12240075.

The chains behind the UniProt entries cited, without tags or fusion partners.
UniProt P11142: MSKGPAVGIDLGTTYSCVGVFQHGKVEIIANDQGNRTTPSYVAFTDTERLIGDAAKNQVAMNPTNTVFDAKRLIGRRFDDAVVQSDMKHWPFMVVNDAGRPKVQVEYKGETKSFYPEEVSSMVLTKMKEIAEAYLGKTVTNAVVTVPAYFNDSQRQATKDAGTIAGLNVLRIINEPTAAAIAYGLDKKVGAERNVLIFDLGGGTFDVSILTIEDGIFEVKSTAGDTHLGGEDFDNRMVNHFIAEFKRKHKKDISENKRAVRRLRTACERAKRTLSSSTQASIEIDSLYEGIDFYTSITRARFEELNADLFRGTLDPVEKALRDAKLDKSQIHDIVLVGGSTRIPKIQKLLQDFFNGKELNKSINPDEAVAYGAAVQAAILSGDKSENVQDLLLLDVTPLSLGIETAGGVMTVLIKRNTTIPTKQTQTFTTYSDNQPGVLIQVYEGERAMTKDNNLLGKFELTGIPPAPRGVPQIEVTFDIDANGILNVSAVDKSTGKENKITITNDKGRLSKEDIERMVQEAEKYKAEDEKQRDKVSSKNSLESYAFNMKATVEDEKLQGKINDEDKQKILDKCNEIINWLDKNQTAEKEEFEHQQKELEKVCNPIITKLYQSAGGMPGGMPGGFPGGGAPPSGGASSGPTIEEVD

Test [1] concerns the target T1, HA-OGA-WT (UniProt O60502).
T1 sequence: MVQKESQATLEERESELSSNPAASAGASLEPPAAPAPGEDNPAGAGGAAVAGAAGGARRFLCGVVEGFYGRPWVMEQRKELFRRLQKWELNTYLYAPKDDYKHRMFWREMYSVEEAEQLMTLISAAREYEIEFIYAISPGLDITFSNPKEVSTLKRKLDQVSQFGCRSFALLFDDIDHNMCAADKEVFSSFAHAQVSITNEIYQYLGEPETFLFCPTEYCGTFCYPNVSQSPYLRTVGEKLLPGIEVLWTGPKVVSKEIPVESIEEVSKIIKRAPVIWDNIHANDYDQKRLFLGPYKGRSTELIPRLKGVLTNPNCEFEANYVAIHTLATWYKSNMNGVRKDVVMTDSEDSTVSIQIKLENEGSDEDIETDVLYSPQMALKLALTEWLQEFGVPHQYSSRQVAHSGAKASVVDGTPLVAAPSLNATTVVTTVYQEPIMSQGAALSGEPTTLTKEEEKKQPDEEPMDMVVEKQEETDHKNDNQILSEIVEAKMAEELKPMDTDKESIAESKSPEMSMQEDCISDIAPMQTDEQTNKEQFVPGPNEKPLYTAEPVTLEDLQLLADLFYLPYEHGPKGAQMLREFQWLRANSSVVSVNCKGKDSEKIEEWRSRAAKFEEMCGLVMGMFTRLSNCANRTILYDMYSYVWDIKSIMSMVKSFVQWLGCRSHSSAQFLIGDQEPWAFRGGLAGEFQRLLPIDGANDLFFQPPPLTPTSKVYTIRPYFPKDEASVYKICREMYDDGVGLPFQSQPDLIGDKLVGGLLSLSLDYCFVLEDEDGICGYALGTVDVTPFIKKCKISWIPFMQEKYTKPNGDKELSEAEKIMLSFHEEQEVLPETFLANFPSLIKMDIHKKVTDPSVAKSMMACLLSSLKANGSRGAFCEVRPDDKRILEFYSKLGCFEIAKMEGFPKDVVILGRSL
The test can be described thus: co-IP; both proteins tagged and overproduced in transfected cells (HEK293T); immunoprecipitation by the tag, immunoblot; lysis buffer 200 mM NaCl, 1 mM EDTA, 20 mM Tris (pH 7.5), 0.5% NP-40. A general note: In western blotting, separated proteins are transferred to a membrane and probed.

In test [2] the target is T2, HA-YEATS2-WT (UniProt Q9ULM3).
T2 sequence: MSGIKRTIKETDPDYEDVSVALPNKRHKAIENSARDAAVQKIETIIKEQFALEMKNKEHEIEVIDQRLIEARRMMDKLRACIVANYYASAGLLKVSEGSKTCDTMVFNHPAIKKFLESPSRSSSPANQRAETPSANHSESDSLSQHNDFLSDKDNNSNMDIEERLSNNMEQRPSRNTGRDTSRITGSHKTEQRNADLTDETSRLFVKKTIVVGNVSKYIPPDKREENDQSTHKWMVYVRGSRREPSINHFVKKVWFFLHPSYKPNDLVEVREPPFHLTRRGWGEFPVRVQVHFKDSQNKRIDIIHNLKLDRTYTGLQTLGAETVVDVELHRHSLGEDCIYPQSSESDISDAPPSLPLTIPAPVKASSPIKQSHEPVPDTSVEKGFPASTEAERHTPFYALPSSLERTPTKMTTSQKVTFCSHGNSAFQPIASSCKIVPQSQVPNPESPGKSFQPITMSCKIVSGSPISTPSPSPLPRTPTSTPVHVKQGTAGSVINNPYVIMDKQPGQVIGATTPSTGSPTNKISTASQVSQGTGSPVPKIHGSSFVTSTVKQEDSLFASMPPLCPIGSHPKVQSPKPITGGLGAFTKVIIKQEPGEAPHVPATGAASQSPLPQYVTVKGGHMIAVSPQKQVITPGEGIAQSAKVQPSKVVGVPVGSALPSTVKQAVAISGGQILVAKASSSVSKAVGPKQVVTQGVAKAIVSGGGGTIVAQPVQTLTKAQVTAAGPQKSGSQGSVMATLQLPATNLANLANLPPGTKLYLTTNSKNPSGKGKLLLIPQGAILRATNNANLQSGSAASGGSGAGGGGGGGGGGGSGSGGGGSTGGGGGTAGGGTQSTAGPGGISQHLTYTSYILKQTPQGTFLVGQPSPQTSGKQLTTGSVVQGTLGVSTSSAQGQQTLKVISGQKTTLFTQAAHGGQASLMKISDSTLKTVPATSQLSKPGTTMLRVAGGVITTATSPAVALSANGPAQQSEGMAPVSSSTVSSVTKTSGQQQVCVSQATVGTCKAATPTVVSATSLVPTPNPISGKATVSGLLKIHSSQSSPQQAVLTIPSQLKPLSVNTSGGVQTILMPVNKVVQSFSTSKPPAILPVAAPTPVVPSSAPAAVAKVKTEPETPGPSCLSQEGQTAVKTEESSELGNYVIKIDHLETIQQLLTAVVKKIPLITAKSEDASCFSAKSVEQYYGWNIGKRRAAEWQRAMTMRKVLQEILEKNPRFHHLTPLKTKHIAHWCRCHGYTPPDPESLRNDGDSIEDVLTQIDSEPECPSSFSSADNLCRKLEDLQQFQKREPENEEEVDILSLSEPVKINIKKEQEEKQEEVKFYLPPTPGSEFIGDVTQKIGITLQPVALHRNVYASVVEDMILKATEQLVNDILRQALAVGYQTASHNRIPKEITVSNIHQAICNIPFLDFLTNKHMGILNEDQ
Described as above.

Results are given in words; binding and its absence hold for the method and conditions named. In cells and extracts the contact can be indirect. Some results given as binding are weak or reduced against the parent protein; the word gives no strength. Tags and fused reporters may be left off the sequences shown.

Consider Flag-HSC70 (from UniProt P11142 1-646), for which the binding entry in test [1] and in test [2] was “binds” throughout.
